Our source for the binding values is PMC7793125.

Chains of the proteins cited; added tags and fusions are not shown. Residues count along the entry.
UniProt Q92841, residues 135-555: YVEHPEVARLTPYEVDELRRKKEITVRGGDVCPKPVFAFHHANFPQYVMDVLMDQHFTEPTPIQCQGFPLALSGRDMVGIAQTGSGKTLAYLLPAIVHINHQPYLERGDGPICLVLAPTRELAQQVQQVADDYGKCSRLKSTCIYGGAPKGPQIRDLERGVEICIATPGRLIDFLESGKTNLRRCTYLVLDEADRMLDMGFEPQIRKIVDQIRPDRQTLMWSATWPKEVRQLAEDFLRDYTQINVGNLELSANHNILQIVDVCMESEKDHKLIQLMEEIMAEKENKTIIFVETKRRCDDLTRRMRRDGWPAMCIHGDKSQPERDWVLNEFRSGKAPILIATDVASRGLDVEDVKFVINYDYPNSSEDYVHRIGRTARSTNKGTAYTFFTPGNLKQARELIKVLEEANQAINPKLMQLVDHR

In this test the target is DDX17 helicase domain (DDX17_(135–555)) (human) (UniProt Q92841). Nature of the test: AUC; sedimentation velocity, protein at 0.5 OD280 (10.2 µM), 50 mM Tris, 150 mM NaCl, 5% glycerol, pH 8, 20 °C, 40,000 rpm; both purified.

Results are given in words; binding and its absence hold for the method and conditions named.

With “DDX17 helicase domain (DDX17_(135–555)) (from UniProt Q92841 135-555) (domain or fragment)”, the binding result is reported as “no binding (tested: 10.2 µM)”.
